Experimental data: US20190086302A1, “COMPOSITION FOR PREPARING BIOLOGICAL MATERIAL HAVING EXCELLENT LIGHT TRANSMISSIVITY AND USE OF COMPOSITION” (RIKEN, priority 2016, published 2019)

The compounds below were run on Serius (assay: 1st quenching assay (relative fluorescence of fluorescent protein)). Conditions: Table 2; relative fluorescence remaining.
Format: biochemical

Point of comparison: `CCCCCCCCCCCCCC[N+](C)(C)Cc1ccccc1` [#0362, Benzyldimethyltetradecylammonium chloride hydrate], “Fluorescence quench Average” value 1.07. Against it:
- NCCCCCO [#0003, 5-Amino-1-pentanol] — lower, 0.63
- NCCCCO [#0006, 4-Amino-1-butanol] — lower, 0.64
- NCCCCCCO [#0007, 6-Amino-1-hexanol] — lower, 0.22
- NCC1CCCC(CN)C1 (stereo not drawn) [#0070, 1,3-Bis(aminomethyl)cyclohexane] — lower, 0.52
- NCC1CCC(CN)CC1 (stereo not drawn) [#0071, 1,4-Bis(aminomethyl)cyclohexane] — lower, 0.56
- Cl.O=C(O)CCP(CCC(=O)O)CCC(=O)O [#0197, Tris(2-carboxyethyl)phosphine hydrochloride] — lower, −0.05
- NCCCNCCNCCCN [#0277, N,N′-Bis(3-aminopropyl)ethylenediamine] — lower, 0.71
- CN(CCCN)CCCN [#0380, 3,3′-Diamino-N-methyldipropylamine] — lower, 0.62
- OCCNCc1ccccc1 [#0389, N-Benzylethanolamine] — lower, 0.57
- NCCCOCCCN [#0394, Bis(3-aminopropyl) ehter] — lower, 0.54
- NCC1CCOCC1 [#0407, 4-Aminomethyltetrahydropyran] — lower, 0.65
- CCCCN(CCO)CCO [#0414, N-Butyldiethanolamine] — lower, 0.70
- [Cl-].c1ccc(C[P+](c2ccccc2)(c2ccccc2)c2ccccc2)cc1 [#0425, Benzyltriphenylphosphonium chloride] — lower, 0.35
- NCCCn1ccnc1 [#0484, 1-(3-Aminopropyl)imidazole] — lower, 0.72
- C1CCC2=NCCCN2CC1 [#0594, 1,8-Diazabicyclo[5.4.0]-7-undecene] — lower, 0.54
- CCCCCCCCCCCCN [#0627, Dodecylamine acetate] — lower, 1.05
- CCCCCCCCCCCC[n+]1ccccc1 [#0635, 1-Dodecylpyridinium chloride] — lower, 1.04
- Cc1cc(=O)n(-c2ccccc2)n1C [#0640, 2,3-Dimethyl-1-phenyl-5-pyrazolone] — lower, 0.84
- CCCCCCCCCC[N+](C)(C)CCCS(=O)(=O)O [#0651, Decyldimethyl(3-sulfopropyl)ammonium hydroxide] — lower, 0.07
- C[n+]1ccc(-c2cc[n+](C)cc2)cc1 [#0652, 1,1′-Dimethyl-4,4′-bipyridinium dichloride] — lower, 0.42
- CCC(N)CCN (stereo not drawn) [#0678, 1,3-Diaminopentane] — lower, 0.60
- CCCCCCCCCCCC[N+](C)(C)CCCS(=O)(=O)O [#0694, Dodecyldimethyl(3-sulfopropyl)ammonium hydroxide] — higher, 1.09
- CCN(CC)CCN [#0779, N,N-Diethylethylenediamine] — lower, 0.70
- NCCCCN [#0783, 1,4-Diaminobutane] — lower, 0.60
- NCCCNCCCN [#0785, 3,3′-Diaminodipropylamine] — lower, 0.62
- CN(C)C(=O)c1ccccc1 [#0788, N,N-Dimethylbenzamide] — lower, 0.76
- NC(=O)c1cccnc1 [#0855, Nicotinamide] — lower, 0.75
- CCn1ccnc1 [#0938, 1-Ethylimidazole] — lower, 0.80
- Cc1cccc(C)n1 [#1008, 2,6-Lutidine] — lower, 0.71
- CCCCCCCCCCCC[N+](C)(C)C [#1021, Dodecyltrimethylammonium chloride] — higher, 1.11
- CC(C)NCCCN [#1027, N-Isopropyl-1,3-diaminopropane] — lower, 0.55
- OCCN1CC1 [#1061, 1-(2-Hydroxyethyl)ethyleneimine] — lower, 0.80
- NCC(O)CN [#1062, 1,3-Diamino-2-propanol] — lower, 0.67
- c1cnccn1 [#1085, Pyrazine] — lower, 0.67
- NCc1cccnc1 [#1102, 3-Picolylamine] — lower, 0.77
- CC(O)CN(CCN(CC(C)O)CC(C)O)CCN(CC(C)O)CC(C)O (stereo not drawn) [#1105, N,N,N′,N″,N″-Pentakis(2-hydroxypropyl)diethylenetriamine] — lower, 0.74
- c1cnc(N2CCNCC2)nc1 [#1167, 1-(2-Pyrimidyl)piperazine] — lower, 0.01
- OCCCC1CCN(CCO)CC1 [#1226, 1-(2-Hydroxyethyl)-4-(3-hydroxypropyl)piperidine] — lower, 0.76
- CC(CN)CCCN (stereo not drawn) [#1267, 2-Methyl-1,5-diaminopentane] — lower, 0.51
- CNC(=O)c1cccnc1 [#1283, N-Methylnicotinamide] — lower, 0.71
- Cc1ccnc(C)c1 [#1312, 2,4-Lutidine] — lower, 0.84
- OCCCCCBr [#1367, 5-Bromo-1-pentanol] — lower, −0.01
- COc1ccc(CO)cc1OC [#1422, Veratryl alcohol] — lower, 0.89
- CN(C)C(=N)N(C)C [#1444, 1,1,3,3-Tetramethylguanidine] — lower, 0.14
- C[C@H](CCC(=O)[O-])[C@H]1CC[C@H]2[C@@H]3CC[C@@H]4C[C@H](O)CC[C@]4(C)[C@H]3C[C@H](O)[C@]12C.[Na+] [#1507, Sodium deoxycholate] — lower, 1.03
- OCCN(CCO)CCN(CCO)CCO [#1537, N,N,N′,N′-Tetrakis(2-hydroxyethyl)ethylenediamine] — lower, 0.66
- CCN(CC)CCO [#1575, 2-Diethylaminoethanol] — lower, 0.61
- CC1(C)CC(N)CC(C)(CN)C1 (stereo not drawn) [#1602, Isophoronediamine] — lower, 0.63
- C[N+](C)(C)Cc1ccccc1.[OH-] [#03887, Benzyltrimethylammonium hydroxide] — lower, 0.00
- Dodacene-1 LAS (JIS K 3361-1990) [#0672] — higher, 1.08
- Tween ® 40 [#1465] — lower, 0.64

Same assay, conditions: Table 2; relative fluorescence remaining; listed as #0562

With `C[C@H](CCC(=O)[O-])[C@H]1CC[C@H]2[C@@H]3CC[C@@H]4C[C@H](O)CC[C@]4(C)[C@H]3C[C@H](O)[C@]12C.[Na+]` [#1507, Sodium deoxycholate] the “Fluorescence quench Average” value was 1.08.

Same assay, conditions: Table 2; relative fluorescence remaining; listed as #0661

With `CCCCCCCCCCCC[N+](C)(C)CCCS(=O)(=O)O` [#0694, Dodecyldimethyl(3-sulfopropyl)ammonium hydroxide] the “Fluorescence quench Average” value was 1.13.
